Measurements reported in PubChem BioAssay AID686938 (Drosophila RNAi Screening Center, 2013)

Test: 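Knock-downs reducing store-operated calcium influx in Drosophila cells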 (primary screen)
Cell system: Drosophila S2R+ cells
Reagents: long dsRNA against Drosophila genes, about 0.25 µg dsRNA per well, roughly 10,000 cells
Timing: 5 days of knock-down before the calcium assay
Challenge: thapsigargin (SERCA pump blocker) to empty calcium stores; entry signal taken 4 min after adding it
Measured: 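Duplicate raw fluo-4 intensities per well from a plate reader, at rest and four minutes after thapsigargin emptied calcium stores; entry-to-rest ratio filled for only some wells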
Direction: calcium entry signal: higher = stronger calcium signal after store depletion; entry to resting ratio: higher = more calcium entry relative to resting level; resting calcium signal: higher = higher resting calcium signal
Call rule: 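Called when the plate z-score of the entry-to-rest ratio, mean of duplicates, falls below −3; wells with low overall dye signal (Fmax z below −2) or more than five off-targets excluded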
Meaning of the calls: active = strongly reduced calcium entry; inactive = no strong reduction
In all, the deposit lists about 23,000 reagents; shown is a random part of those with a known target gene and a result. Of all reagents, 75 (0.33%) are marked active. 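Raw plate signals without normalisation; calls rest on plate z-scores that were not deposited; ratio present for only 364 wells.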 Entries without a mark were called inactive. Reagents against one gene are numbered here. Names joined by + are all predicted targets of the reagent. Not given: the dose of the treatment.

no.	target gene	dsRNA no.	calcium entry signal, replicate 1 (fluorescence units)	calcium entry signal, replicate 2 (fluorescence units)	entry to resting ratio	resting calcium signal, replicate 1 (fluorescence units)	resting calcium signal, replicate 2 (fluorescence units)
1	CG31465	1	2.37e7	2.22e7		1.17e7	1.17e7
2	Uqcc1 + CG9948	1	3.27e7	4.89e7		1.54e7	1.97e7
3	CG6262	1	5.93e7	4.65e7		2.41e7	2.24e7
4	CG6262	2	3.62e7	3.21e7		1.82e7	1.62e7
5	S6k	1	2.87e7	3.67e7		1.31e7	1.49e7
6	RpS26	1	1.45e7	1.30e7		1.20e7	9.24e6
7	FRG1	1	2.27e7	4.04e7		1.10e7	1.75e7
8	CG32652 (retired record)	1	3.02e7	5.09e7		1.46e7	2.91e7
9	CG32652 (retired record)	2	3.54e7	2.84e7		1.89e7	1.45e7
10	Vm32E	1	3.71e7	4.83e7		2.10e7	2.53e7
11	unc-4	1	2.87e7	3.98e7		1.53e7	1.81e7
12	unc-4	2	3.10e7	5.15e7		1.58e7	2.74e7
13	Argp	1	3.19e7	4.72e7		1.56e7	6.20e7
14	Hcs	1	3.37e7	5.35e7		1.62e7	2.37e7
15	Hcs	2	4.13e7	2.59e7		2.03e7	1.32e7
16	CG13186	1	2.16e7	3.39e7		1.10e7	1.49e7
17	CG12766	1	2.81e7	4.67e7		1.71e7	2.25e7
18	CG14182	1	3.35e7	5.28e7		1.68e7	2.30e7
19	VhaPPA1-1	1	4.79e7	3.69e7		2.87e7	2.19e7
20	Ptpmeg	1	4.71e7	3.77e7		2.14e7	1.93e7
21	vig2	1	3.96e7	3.29e7		2.03e7	1.49e7
22	CG34328	1	3.63e7	4.30e7		1.85e7	1.96e7
23	p115	1	2.64e7	3.64e7		1.56e7	1.61e7
24	Tsp42Ep	1	4.28e7			2.23e7	
25	CG13285	1	3.96e7	6.13e7		1.81e7	2.63e7
26	TM9SF3	1	3.81e7	4.87e7		1.74e7	2.11e7
27	Polr2G	1	1.67e7	1.85e7		9.96e6	1.07e7
28	Ntl	1	4.94e7	3.24e7		2.55e7	1.71e7
29	CG32074	1	2.06e7	6.29e7		1.18e7	2.67e7
30	CG13954	1	3.73e7	4.48e7		1.86e7	2.05e7
31	PlexB	1	5.07e7	5.00e7	2	2.59e7	1.97e7
32	Rad17	1	3.05e7	4.15e7		1.53e7	6.75e7
33	Sas-6	1	4.21e7	6.09e7		2.21e7	2.70e7
34	CG42808	1	3.01e7	2.93e7		1.40e7	1.33e7
35	CG14074	1	2.44e7	4.33e7		1.31e7	1.77e7
36	Tsp86D	1	3.27e7	3.69e7		1.52e7	1.76e7
37	Hsdl2	1	3.27e7	4.67e7		1.70e7	2.08e7
38	Dek	1	3.83e7	3.70e7		1.80e7	1.93e7
39	CG9986	1	6.01e7	4.97e7		2.53e7	2.38e7
40	tipE	1	4.38e7	4.17e7		3.17e7	1.82e7
41	CG43347	1	3.44e7	4.99e7		1.85e7	2.56e7
42	CG43347	2	3.18e7	3.46e7		2.02e7	1.62e7
43	CG43347	3	4.55e7	3.55e7		2.66e7	1.60e7
44	CG43347	4	2.56e7	2.70e7		1.38e7	1.24e7
45	CG43347	5	5.09e7	2.96e7		2.53e7	1.29e7
46	CG43347	6	2.67e7	2.82e7		1.29e7	1.18e7
47	Fdx1	1	2.43e7	3.83e7		1.25e7	1.50e7
48	Gas8	1	3.67e7	4.45e7		2.24e7	1.83e7
49	CG31760	1	3.81e7	2.61e7		1.79e7	1.23e7
50	TppII	1	3.51e7	3.73e7		1.66e7	1.69e7
51	CG6650	1	2.05e7	3.11e7		1.04e7	2.03e7
52	Tsp29Fa	1	4.33e7	5.21e7		1.76e7	2.10e7
53	p130CAS	1	4.22e7	3.40e7		1.94e7	1.45e7
54	p130CAS	2	4.81e7	4.60e7		2.09e7	2.12e7
55	CG13501	1	4.51e7	5.43e7		2.25e7	2.27e7
56	PAN2	1	5.81e7	4.21e7		2.51e7	1.94e7
57	CadN2	1	4.86e7	3.70e7		2.14e7	1.70e7
58	CadN2	2	4.38e7	3.84e7		2.05e7	1.86e7
59	CadN2	3	4.86e7	3.53e7		2.07e7	1.74e7
60	BomS3	1	2.36e7	2.59e7		1.34e7	1.19e7
61	CG4596	1	3.48e7	4.12e7		1.54e7	1.91e7
62	CG13016	1	3.58e7	3.35e7		1.92e7	1.57e7
63	thr	1	2.37e7	2.27e7		1.43e7	1.44e7
64	CG42340	1	2.98e7	5.15e7		1.51e7	2.32e7
65	CG42340	2	2.86e7	4.40e7		1.39e7	2.13e7
66	CG42340	3	2.60e7	3.68e7		1.36e7	1.80e7
67	CG42340	4	3.63e7	4.41e7		2.01e7	1.91e7
68	CG11841	1	2.87e7	2.15e7		1.31e7	1.14e7
69	CG4704	1	5.67e7	8.64e7		2.48e7	3.04e7
70	CG10137	1	3.60e7			1.79e7	
71	CG10137	2	4.92e7	5.05e7		2.31e7	2.24e7
72	Sk2	1	3.56e7	2.24e7		2.55e7	1.04e7
73	alpha-Est4	1	4.20e7	3.25e7		1.90e7	1.54e7
74	tkv + CR14033 + tRNA:Asp-GTC-2-1 + 1 more	1	3.45e7	4.24e7		2.14e7	2.03e7
75	CG11044	1	5.81e7	5.79e7		2.59e7	2.68e7

Sorted by “resting calcium signal, replicate 2 (fluorescence units)” (low to high): some entries from above.
target gene	dsRNA no.	calcium entry signal, replicate 1 (fluorescence units)	calcium entry signal, replicate 2 (fluorescence units)	entry to resting ratio	resting calcium signal, replicate 1 (fluorescence units)	resting calcium signal, replicate 2 (fluorescence units)
CG43347	4	2.56e7	2.70e7		1.38e7	1.24e7
CG42808	1	3.01e7	2.93e7		1.40e7	1.33e7
CG43347	3	4.55e7	3.55e7		2.66e7	1.60e7
CG43347	2	3.18e7	3.46e7		2.02e7	1.62e7
Tsp86D	1	3.27e7	3.69e7		1.52e7	1.76e7
CG14074	1	2.44e7	4.33e7		1.31e7	1.77e7
tipE	1	4.38e7	4.17e7		3.17e7	1.82e7
Dek	1	3.83e7	3.70e7		1.80e7	1.93e7
Hsdl2	1	3.27e7	4.67e7		1.70e7	2.08e7
CG9986	1	6.01e7	4.97e7		2.53e7	2.38e7
CG43347	1	3.44e7	4.99e7		1.85e7	2.56e7
Sas-6	1	4.21e7	6.09e7		2.21e7	2.70e7
Rad17	1	3.05e7	4.15e7		1.53e7	6.75e7
